Assay results reported in PMC7968368.
No constants are given. Whether binding was seen depends on the method and setting. Binding seen in cells or lysates may run through a third protein. Some entries that bind do so weakly or less than the wild type. For some of these results: Where a sequence is shown, tags or fusion partners need not be part of it. Blank lines part the entries; values can stand above or below the molecule they belong to.

By UniProt entry, the sequences of proteins in these tests, tags left out.
UniProt P70288: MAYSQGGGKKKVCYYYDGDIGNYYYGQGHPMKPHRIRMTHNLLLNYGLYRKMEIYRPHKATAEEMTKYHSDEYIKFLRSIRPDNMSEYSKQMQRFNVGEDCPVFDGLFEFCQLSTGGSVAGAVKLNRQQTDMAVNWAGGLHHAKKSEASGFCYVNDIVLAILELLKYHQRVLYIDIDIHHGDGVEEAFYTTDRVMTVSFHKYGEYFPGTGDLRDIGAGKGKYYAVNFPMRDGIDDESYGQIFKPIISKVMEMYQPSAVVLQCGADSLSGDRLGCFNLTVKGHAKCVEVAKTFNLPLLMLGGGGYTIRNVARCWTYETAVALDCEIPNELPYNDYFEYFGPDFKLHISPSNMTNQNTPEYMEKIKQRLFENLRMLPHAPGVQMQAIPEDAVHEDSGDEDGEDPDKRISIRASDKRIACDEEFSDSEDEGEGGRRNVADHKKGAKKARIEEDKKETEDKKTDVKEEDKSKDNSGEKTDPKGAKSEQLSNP
UniProt P23198: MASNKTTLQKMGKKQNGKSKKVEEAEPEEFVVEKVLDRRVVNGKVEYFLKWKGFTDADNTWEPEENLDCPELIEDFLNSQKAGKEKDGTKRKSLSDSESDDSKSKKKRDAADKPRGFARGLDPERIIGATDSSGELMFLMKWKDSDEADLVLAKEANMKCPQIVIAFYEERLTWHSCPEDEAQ
UniProt O09106: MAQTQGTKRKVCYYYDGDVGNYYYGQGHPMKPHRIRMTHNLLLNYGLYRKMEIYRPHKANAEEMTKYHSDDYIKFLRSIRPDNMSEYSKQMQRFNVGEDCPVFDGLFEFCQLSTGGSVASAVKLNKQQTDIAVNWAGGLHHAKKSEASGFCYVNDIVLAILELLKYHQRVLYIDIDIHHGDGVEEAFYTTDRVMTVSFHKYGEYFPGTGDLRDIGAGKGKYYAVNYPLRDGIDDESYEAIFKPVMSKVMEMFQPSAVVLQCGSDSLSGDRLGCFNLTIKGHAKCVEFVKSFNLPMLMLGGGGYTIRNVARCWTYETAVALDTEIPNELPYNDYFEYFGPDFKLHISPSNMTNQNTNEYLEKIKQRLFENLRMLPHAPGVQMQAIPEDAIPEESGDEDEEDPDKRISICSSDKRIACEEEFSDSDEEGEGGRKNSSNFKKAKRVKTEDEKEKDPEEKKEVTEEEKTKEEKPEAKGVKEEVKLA
UniProt Q6PDQ2: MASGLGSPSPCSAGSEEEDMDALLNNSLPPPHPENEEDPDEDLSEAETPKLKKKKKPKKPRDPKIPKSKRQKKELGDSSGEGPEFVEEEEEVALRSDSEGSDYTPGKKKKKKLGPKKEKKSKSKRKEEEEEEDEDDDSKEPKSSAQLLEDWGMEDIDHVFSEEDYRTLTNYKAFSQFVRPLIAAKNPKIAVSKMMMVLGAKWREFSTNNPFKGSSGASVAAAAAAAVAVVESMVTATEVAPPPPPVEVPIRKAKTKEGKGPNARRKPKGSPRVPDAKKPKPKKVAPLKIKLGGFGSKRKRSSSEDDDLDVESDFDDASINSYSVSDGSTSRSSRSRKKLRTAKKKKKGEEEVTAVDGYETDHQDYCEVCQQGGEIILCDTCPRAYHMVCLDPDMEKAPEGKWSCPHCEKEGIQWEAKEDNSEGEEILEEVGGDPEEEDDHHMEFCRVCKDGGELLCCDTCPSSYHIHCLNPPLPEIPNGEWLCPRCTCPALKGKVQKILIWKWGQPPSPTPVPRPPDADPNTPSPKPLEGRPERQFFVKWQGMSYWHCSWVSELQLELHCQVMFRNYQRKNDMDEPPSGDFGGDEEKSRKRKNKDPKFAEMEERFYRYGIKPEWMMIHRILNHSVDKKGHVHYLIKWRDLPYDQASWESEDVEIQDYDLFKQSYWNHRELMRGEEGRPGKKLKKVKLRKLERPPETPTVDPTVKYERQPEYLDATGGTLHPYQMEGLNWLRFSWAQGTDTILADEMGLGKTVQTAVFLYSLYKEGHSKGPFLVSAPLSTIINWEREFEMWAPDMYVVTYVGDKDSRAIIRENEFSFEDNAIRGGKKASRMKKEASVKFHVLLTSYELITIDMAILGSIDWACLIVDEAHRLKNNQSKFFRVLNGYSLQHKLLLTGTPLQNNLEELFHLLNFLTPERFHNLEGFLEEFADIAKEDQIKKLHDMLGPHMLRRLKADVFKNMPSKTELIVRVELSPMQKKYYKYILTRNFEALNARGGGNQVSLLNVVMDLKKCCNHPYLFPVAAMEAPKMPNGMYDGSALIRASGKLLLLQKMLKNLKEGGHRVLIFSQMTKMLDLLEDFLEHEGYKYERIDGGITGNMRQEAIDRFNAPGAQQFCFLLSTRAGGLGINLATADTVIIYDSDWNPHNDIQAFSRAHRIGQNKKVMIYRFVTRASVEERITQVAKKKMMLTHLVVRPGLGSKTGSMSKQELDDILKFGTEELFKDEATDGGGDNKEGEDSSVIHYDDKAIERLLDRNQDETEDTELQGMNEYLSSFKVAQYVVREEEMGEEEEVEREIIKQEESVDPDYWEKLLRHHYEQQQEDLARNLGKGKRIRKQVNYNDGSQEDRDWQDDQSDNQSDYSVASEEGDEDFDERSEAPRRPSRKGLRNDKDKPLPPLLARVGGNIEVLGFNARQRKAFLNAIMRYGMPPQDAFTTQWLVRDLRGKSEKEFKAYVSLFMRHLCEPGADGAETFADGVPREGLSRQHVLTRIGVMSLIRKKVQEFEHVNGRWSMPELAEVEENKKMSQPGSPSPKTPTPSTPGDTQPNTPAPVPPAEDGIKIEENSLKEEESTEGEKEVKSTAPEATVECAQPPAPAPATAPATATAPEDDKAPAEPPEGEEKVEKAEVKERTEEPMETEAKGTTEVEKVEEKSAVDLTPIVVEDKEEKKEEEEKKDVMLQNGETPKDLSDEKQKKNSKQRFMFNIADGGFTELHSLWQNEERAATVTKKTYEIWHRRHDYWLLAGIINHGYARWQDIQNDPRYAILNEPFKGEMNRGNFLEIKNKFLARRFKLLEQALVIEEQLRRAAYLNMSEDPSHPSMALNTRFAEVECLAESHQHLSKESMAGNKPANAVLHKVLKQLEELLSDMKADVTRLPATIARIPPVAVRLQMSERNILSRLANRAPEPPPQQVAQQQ

Legend:
[1] = biological target: T1, TBX2 (T-box 2) (mouse (endogenous in E14.5 lung)) (UniProt Q60707); assay: proximity ligation; Duolink in situ PLA on 10 µm frontal lung sections of E14.5 wildtype and Tbx2-mutant embryos; primary antibodies against TBX2 and the candidate, 1:100, overnight at 4 °C
T1 sequence: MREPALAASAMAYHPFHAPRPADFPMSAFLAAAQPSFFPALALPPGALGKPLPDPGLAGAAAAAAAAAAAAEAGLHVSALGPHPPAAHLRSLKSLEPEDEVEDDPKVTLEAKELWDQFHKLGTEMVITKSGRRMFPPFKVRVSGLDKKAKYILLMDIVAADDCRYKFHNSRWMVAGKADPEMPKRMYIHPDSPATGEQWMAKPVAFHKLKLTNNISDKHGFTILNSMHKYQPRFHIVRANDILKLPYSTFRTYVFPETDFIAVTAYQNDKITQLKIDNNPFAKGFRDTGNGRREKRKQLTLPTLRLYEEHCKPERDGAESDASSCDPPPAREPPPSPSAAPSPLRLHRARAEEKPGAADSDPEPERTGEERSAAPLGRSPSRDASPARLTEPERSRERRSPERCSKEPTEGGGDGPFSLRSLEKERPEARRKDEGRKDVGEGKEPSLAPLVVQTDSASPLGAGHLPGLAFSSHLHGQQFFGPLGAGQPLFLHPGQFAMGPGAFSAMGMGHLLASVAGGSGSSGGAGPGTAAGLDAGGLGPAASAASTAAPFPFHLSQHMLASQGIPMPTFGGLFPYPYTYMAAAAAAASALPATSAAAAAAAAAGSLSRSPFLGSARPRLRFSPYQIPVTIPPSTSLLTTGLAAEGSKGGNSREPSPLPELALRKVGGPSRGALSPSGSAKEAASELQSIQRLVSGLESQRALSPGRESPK

[2] = biological target: T2, full-length mouse HMGB2 (Hmgb2-GFP) (mouse) (UniProt P30681); assay: co-IP; HEK293 co-transfected with HA-TBX2 and the candidate; lysates by the RIME protocol; IP with anti-MYC or an antibody against the candidate, Protein G magnetic beads overnight at 4 °C; blot for HA-tagged TBX2
T2 sequence: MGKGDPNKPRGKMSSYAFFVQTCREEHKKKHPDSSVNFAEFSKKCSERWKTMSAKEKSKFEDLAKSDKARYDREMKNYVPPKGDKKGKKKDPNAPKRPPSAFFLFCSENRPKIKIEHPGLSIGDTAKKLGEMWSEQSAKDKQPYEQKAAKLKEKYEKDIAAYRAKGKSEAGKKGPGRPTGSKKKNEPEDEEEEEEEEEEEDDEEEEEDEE

[3] = biological target: full-length mouse HDAC2 (Hdac2-Myc-DDK) (mouse) (UniProt P70288); assay: as above
[4] = biological target: full-length mouse CBX3 (Cbx3-Myc-DDK) (mouse) (UniProt P23198); assay: as above
[5] = biological target: full-length mouse HDAC1 (mouse) (UniProt O09106); assay: as above
[6] = biological target: full-length mouse CHD4 (mouse) (UniProt Q6PDQ2); assay: as above

Molecule: CHD4 (chromodomain helicase DNA binding protein 4) (from UniProt Q6PDQ2 1-1915) (enzyme)
binding [1]: binds

B2: HMGB2 (high mobility group box 2) (protein, UniProt P30681 1-210)
chain: T2 sequence
binding [1]: binds

Continued, values first:

binding [1]: binds
Molecule: HDAC1 (histone deacetylase 1) (from UniProt O09106 1-482) (enzyme)

binding [1]: binds
Molecule: HDAC2 (histone deacetylase 2) (from UniProt P70288 1-488) (enzyme)

binding [1]: binds
Molecule: CBX3 (chromobox 3) (from UniProt P23198 1-183)

binding [2]: binds
binding [3]: binds
binding [4]: binds
binding [5]: binds
binding [6]: binds
B1: N-terminally HA-tagged full-length human TBX2 (protein, UniProt Q13207 1-712)
chain: MREPALAASAMAYHPFHAPRPADFPMSAFLAAAQPSFFPALALPPGALAKPLPDPGLAGAAAAAAAAAAAAEAGLHVSALGPHPPAAHLRSLKSLEPEDEVEDDPKVTLEAKELWDQFHKLGTEMVITKSGRRMFPPFKVRVSGLDKKAKYILLMDIVAADDCRYKFHNSRWMVAGKADPEMPKRMYIHPDSPATGEQWMAKPVAFHKLKLTNNISDKHGFTILNSMHKYQPRFHIVRANDILKLPYSTFRTYVFPETDFIAVTAYQNDKITQLKIDNNPFAKGFRDTGNGRREKRKQLTLPSLRLYEEHCKPERDGAESDASSCDPPPAREPPTSPGAAPSPLRLHRARAEEKSCAADSDPEPERLSEERAGAPLGRSPAPDSASPTRLTEPERARERRSPERGKEPAESGGDGPFGLRSLEKERAEARRKDEGRKEAAEGKEQGLAPLVVQTDSASPLGAGHLPGLAFSSHLHGQQFFGPLGAGQPLFLHPGQFTMGPGAFSAMGMGHLLASVAGGGNGGGGGPGTAAGLDAGGLGPAASAASTAAPFPFHLSQHMLASQGIPMPTFGGLFPYPYTYMAAAAAAASALPATSAAAAAAAAAGSLSRSPFLGSARPRLRFSPYQIPVTIPPSTSLLTTGLASEGSKAAGGNSREPSPLPELALRKVGAPSRGALSPSGSAKEAANELQSIQRLVSGLESQRALSPGRESPK
